Reference: the supplement of paper PMC10849652
Some of the results follow.

Protein sequences, listed by entry. Tags and fused reporters are not part of them. Lines headed by an entry give the natural chain unless they say otherwise; changes in a name come on top.
UniProt Q96PC3: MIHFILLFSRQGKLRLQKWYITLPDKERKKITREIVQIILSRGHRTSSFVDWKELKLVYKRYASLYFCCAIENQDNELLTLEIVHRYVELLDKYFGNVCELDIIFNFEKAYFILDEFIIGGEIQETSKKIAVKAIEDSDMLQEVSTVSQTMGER
UniProt P59780: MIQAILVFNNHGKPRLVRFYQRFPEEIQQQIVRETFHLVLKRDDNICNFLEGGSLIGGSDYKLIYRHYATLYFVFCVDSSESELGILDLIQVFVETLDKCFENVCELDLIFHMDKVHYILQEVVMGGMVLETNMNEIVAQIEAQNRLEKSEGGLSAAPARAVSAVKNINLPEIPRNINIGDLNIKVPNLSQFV
UniProt Q9H8T0: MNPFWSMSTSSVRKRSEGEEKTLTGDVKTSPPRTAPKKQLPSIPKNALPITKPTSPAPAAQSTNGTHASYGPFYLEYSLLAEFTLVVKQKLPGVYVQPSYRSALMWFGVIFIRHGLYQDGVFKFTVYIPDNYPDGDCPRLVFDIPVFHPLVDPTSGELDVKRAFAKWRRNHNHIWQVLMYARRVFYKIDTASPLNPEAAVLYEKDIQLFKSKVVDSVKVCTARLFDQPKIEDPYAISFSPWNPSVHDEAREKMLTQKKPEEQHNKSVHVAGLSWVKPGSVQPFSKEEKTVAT
UniProt Q86W34: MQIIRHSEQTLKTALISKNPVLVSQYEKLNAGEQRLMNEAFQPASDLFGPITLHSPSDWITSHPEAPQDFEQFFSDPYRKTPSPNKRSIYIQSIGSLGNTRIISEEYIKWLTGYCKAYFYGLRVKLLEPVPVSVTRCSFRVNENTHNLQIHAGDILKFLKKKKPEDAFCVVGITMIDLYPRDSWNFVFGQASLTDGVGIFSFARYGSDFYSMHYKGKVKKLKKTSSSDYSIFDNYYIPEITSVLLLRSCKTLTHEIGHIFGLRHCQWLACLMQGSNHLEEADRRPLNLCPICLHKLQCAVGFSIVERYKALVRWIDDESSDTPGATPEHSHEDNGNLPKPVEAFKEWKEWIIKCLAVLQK

What was measured:
Assay in all cases: log2 fold change, soluble protein after heating vs DMSO (PISA); higher = thermal stabilisation; K562 lysate, 10 uM; active = over 0.2 and 3.5 SD of the protein, either way, in both replicates (recomputed)
lapatinib = compound: CS(=O)(=O)CCNCc1ccc(-c2ccc3ncnc(Nc4ccc(OCc5cccc(F)c5)c(Cl)c4)c3c2)o1 [lapatinib]
How it was run: (§1)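 The values are log-two fold changes in thermal stability compared with solvent controls and come from duplicates. They were obtained by TMTpro 16plex LC-MS/MS, with channel sums equalised, on the supernatant after 21,000xg for 90 min. That supernatant came from crude K562 extract at 1 mg/mL protein treated with 10 μM compound for 30 min, heated for 3 min across 48°C-58°C, pooled and brought to 0.5% NP-40 at 4°C.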

pictilisib = compound: CS(=O)(=O)N1CCN(Cc2cc3nc(-c4cccc5[nH]ncc45)nc(N4CCOCC4)c3s2)CC1 [pictilisib]
How it was run: as §1

[1] = compound: C[C@H](C1=CC=C(C=C1)C(=O)NC2=C3C=CNC3=NC=C2)N
How it was run: as §1

gandotinib = compound: Cc1cc(Nc2cc(CN3CCOCC3)c3nc(C)c(Cc4ccc(Cl)cc4F)n3n2)n[nH]1 [gandotinib]
How it was run: as §1

bafetinib = compound: Cc1ccc(NC(=O)c2ccc(CN3CC[C@H](N(C)C)C3)c(C(F)(F)F)c2)cc1Nc1nccc(-c2cncnc2)n1 [bafetinib]
How it was run: as §1

[2] = compound: Cc1cccc(CC(=O)N2CCc3c2ccc(-c2cn(C)c4ncnc(N)c24)c3F)n1
How it was run: as §1

[3] = compound: NC(=O)c1cnc(N[C@@H]2CCCC[C@@H]2N)nc1Nc1cccc(-n2nccn2)c1
How it was run: as §1

duvelisib = compound: C[C@H](Nc1ncnc2nc[nH]c12)c1cc2cccc(Cl)c2c(=O)n1-c1ccccc1 [duvelisib]
How it was run: as §1

nilotinib = compound: Cc1cn(-c2cc(NC(=O)c3ccc(C)c(Nc4nccc(-c5cccnc5)n4)c3)cc(C(F)(F)F)c2)cn1 [nilotinib]
How it was run: as §1

[4] = compound: Cc1nc(Nc2n[nH]c3c2CN(C(=O)N[C@H](CN(C)C)c2ccccc2)C3(C)C)c2sccc2n1
How it was run: as §1

dasatinib = compound: Cc1nc(Nc2ncc(C(=O)Nc3c(C)cccc3Cl)s2)cc(N2CCN(CCO)CC2)n1 [dasatinib]
How it was run: as §1

[5] = compound: Cc1ncc(-c2ccnc(Nc3ccc(S(C)(=O)=O)cc3)n2)n1C(C)C
How it was run: as §1

[6] = compound: Cn1cc(-c2ccc3c(c2)CCN3C(=O)Cc2cccc(C(F)(F)F)c2)c2c(N)ncnc21
How it was run: as §1

tipifarnib = compound: Cn1cncc1[C@@](N)(c1ccc(Cl)cc1)c1ccc2c(c1)c(-c1cccc(Cl)c1)cc(=O)n2C [tipifarnib]
How it was run: as §1

[7] = compound: NC1(c2ccc(-c3nc4ccn5c(=O)[nH]nc5c4cc3-c3ccccc3)cc2)CCC1
How it was run: as §1

tozasertib = compound: Cc1cc(Nc2cc(N3CCN(C)CC3)nc(Sc3ccc(NC(=O)C4CC4)cc3)n2)n[nH]1 [tozasertib]
How it was run: as §1

crizotinib = compound: C[C@@H](Oc1cc(-c2cnn(C3CCNCC3)c2)cnc1N)c1c(Cl)ccc(F)c1Cl [crizotinib]
How it was run: as §1

doramapimod = compound: Cc1ccc(-n2nc(C(C)(C)C)cc2NC(=O)Nc2ccc(OCCN3CCOCC3)c3ccccc23)cc1 [doramapimod]
How it was run: as §1

quisinostat = compound: Cn1cc(CNCC2CCN(c3ncc(C(=O)NO)cn3)CC2)c2ccccc21 [quisinostat]
How it was run: as §1

[8] = compound: NC(=O)Nc1cc(-c2cccc(F)c2)sc1C(=O)N[C@H]1CCCNC1
How it was run: as §1

Measured: log2 fold change

AP2S1 (UniProt M0QZ21)
inactive: lapatinib 0.024 | pictilisib 0.054 | [1] -0.053 | gandotinib 0.204 | bafetinib -0.055 | [2] 0.109 | [3] 0.178

AP1S3 isoform 4 (UniProt Q96PC3)
inactive: lapatinib -0.004 | pictilisib -0.153 | [1] -0.084 | duvelisib -0.135 | gandotinib 0.024 | bafetinib 0.113 | [2] 0.139 | nilotinib 0.082 | [4] -0.146 | dasatinib 0.027 | [5] -0.007 | [6] 0.102 | tipifarnib -0.028 | [3] 0.103 | [7] 0.129

AP3S2 (UniProt P59780)
inactive: lapatinib -0.201 | nilotinib 0 | [4] 0.184 | [5] 0.168 | tipifarnib -0.029 | [3] 0.021 | [7] -0.039

AKTIP isoform 2 (UniProt Q9H8T0)
inactive: lapatinib -0.105 | duvelisib -0.148 | tozasertib 0.118 | dasatinib -0.005 | [6] 0.105 | [3] -0.139 | [7] 0.404

AMZ2 (UniProt Q86W34)
inactive: lapatinib -0.002 | pictilisib -0.09 | crizotinib 0.018 | duvelisib 0.106 | tozasertib -0.04 | doramapimod 0 | bafetinib -0.071 | nilotinib -0.063 | [4] 0.058 | dasatinib -0.046 | [5] -0.014 | [6] -0.051 | quisinostat -0.032 | tipifarnib 0.071 | [8] 0.013 | [3] 0.023 | [7] 0.008
